According to patent US20180112192A1:
These are yes or no findings as the source states them, for the method shown. In cells and extracts the contact can be indirect. Some entries that bind do so weakly or less than the wild type.

Amino acid sequences for entries named in this document (tags omitted). A change or cut given only in a name is not applied to a line headed by its entry.
UniProt Q9BXM7: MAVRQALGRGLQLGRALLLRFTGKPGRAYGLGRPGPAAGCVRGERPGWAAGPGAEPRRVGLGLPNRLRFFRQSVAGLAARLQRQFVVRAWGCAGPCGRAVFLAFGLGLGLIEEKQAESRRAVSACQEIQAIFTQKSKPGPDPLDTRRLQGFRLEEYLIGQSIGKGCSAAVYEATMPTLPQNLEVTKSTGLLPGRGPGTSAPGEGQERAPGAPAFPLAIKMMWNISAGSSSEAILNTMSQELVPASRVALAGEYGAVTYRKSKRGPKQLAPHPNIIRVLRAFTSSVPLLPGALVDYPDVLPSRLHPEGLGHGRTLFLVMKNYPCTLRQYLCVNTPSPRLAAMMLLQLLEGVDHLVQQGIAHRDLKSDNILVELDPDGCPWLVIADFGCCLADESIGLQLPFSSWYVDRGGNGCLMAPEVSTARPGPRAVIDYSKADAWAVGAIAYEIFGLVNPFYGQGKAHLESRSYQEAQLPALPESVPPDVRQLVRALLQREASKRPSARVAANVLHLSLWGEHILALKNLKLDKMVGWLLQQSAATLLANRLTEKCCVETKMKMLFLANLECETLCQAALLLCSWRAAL

Key:
[1] = biological target: EGFR exon 19 deletion mutant (endogenous, PC9 cells) (UniProt P00533); assay: co-immunoprecipitation of endogenous proteins, PC9 cells (FIG. 1B)
[2] = biological target: EGFR, wild-type (endogenous, CL1-5 cells) (UniProt P00533); assay: co-immunoprecipitation of endogenous proteins, CL1-5 cells (FIG. 1B)
[3] = biological target: EGFR L858R+T790M mutant (endogenous, H1975 cells) (UniProt P00533); assay: co-immunoprecipitation of endogenous proteins, H1975 cells (FIG. 1B)
[4] = biological target: EGFR L858R mutant (endogenous, H3255 cells) (UniProt P00533); assay: co-immunoprecipitation of endogenous proteins, H3255 cells (FIG. 1B)
[5] = biological target: EGFR exon 19 deletion mutant (endogenous, PC9 cells) (UniProt P00533); assay: co-immunoprecipitation of endogenous proteins (EGFR antibody IP, PINK1 blot), PC9 cell lysate
[6] = biological target: EGFR, wild-type (endogenous, CL1-5 cells) (UniProt P00533); assay: co-immunoprecipitation of endogenous proteins (EGFR antibody IP, PINK1 blot), CL1-5 cell lysate
[7] = biological target: EGFR L858R+T790M mutant (endogenous, H1975 cells) (UniProt P00533); assay: co-immunoprecipitation of endogenous proteins (EGFR antibody IP, PINK1 blot), H1975 cell lysate
[8] = biological target: EGFR L858R mutant (endogenous, H3255 cells) (UniProt P00533); assay: co-immunoprecipitation of endogenous proteins (EGFR antibody IP, PINK1 blot), H3255 cell lysate

Measured: binding

PTEN-induced putative kinase 1 (PINK1), full-length (from UniProt Q9BXM7 78-581) (enzyme)
binds: all assays above
